According to PMC12352869:
These are yes or no findings as the source states them, for the method shown. In cells and extracts the contact can be indirect.

Target: T1, YEATS2 in HEK293T cells (human) (UniProt Q9ULM3)
T1 sequence: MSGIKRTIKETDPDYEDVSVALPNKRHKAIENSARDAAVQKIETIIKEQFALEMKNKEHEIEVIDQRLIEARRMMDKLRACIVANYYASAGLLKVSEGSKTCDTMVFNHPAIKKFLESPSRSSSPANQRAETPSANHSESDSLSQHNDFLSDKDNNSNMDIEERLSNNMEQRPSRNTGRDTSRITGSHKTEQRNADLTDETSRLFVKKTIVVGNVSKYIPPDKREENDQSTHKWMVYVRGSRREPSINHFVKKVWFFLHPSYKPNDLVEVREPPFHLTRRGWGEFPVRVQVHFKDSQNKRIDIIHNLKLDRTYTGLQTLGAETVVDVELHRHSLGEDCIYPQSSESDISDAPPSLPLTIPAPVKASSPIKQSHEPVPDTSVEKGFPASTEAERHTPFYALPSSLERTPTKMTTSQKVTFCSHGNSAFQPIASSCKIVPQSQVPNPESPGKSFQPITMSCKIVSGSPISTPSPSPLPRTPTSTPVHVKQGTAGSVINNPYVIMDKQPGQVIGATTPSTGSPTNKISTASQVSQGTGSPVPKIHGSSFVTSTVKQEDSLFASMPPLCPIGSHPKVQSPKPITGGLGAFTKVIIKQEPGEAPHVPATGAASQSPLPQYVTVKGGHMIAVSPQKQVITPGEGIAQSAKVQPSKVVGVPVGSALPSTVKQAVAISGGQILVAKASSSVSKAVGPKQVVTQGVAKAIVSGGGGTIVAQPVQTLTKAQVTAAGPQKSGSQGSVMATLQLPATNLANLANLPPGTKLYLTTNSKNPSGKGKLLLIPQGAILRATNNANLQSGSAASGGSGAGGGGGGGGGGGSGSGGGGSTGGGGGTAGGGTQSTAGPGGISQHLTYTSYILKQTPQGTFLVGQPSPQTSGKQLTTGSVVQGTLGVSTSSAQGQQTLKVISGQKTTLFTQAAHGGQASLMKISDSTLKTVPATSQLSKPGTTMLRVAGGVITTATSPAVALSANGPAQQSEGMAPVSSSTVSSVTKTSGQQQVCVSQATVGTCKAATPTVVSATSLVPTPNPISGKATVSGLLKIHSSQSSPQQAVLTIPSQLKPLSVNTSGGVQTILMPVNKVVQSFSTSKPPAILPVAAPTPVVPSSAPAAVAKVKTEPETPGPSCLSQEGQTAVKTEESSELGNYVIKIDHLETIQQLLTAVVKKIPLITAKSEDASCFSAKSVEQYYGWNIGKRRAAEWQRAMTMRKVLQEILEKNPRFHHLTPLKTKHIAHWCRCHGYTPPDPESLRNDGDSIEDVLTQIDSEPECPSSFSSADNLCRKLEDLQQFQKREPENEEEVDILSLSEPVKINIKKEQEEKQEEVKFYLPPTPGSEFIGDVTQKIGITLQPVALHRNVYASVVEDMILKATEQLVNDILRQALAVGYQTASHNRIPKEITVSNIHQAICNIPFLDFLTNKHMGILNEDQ
Assay: co-IP; co-immunoprecipitation and immunoblot in HEK293T cells; bait and antibodies not stated for this experiment

binding: no binding
B1: glutaryl-CoA dehydrogenase (GCDH) in HEK293T cells (enzyme, UniProt Q92947 45-438)
chain: RPEFDWQDPLVLEEQLTTDEILIRDTFRTYCQERLMPRILLANRNEVFHREIISEMGELGVLGPTIKGYGCAGVSSVAYGLLARELERVDSGYRSAMSVQSSLVMHPIYAYGSEEQRQKYLPQLAKGELLGCFGLTEPNSGSDPSSMETRAHYNSSNKSYTLNGTKTWITNSPMADLFVVWARCEDGCIRGFLLEKGMRGLSAPRIQGKFSLRASATGMIIMDGVEVPEENVLPGASSLGGPFGCLNNARYGIAWGVLGASEFCLHTARQYALDRMQFGVPLARNQLIQKKLADMLTEITLGLHACLQLGRLKDQDKAAPEMVSLLKRNNCGKALDIARQARDMLGGNGISDEYHVIRHAMNLEAVNTYEGTHDIHALILGRAITGIQAFTASK
